For the assay, the target named is T1, Annexin A7 (ANXA7) (mouse (endogenous in Hca-F)) (UniProt Q07076).
T1 sequence: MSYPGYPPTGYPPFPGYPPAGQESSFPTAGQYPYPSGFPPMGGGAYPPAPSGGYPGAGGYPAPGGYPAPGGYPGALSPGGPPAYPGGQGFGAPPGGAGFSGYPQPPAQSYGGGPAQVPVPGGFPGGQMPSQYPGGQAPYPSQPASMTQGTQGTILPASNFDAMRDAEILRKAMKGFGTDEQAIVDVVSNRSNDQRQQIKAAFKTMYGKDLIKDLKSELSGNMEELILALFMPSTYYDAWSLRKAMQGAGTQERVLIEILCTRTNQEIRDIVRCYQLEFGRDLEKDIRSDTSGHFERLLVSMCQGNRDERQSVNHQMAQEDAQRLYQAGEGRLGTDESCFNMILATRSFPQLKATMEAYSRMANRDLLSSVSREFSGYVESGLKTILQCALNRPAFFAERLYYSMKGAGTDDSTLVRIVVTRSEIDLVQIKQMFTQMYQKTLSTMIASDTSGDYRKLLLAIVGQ
The assay can be described thus: co-IP; Hca-F cell lysate incubated overnight at 4 °C with primary antibody, immune complexes captured on Protein A/G agarose (Proteintech IP Kit KIP-1), eluates immunoblotted.

Protein sequences, listed by entry. Tags and fused reporters are not part of them. Residues count along the entry.
UniProt P48356, residues 22-1162: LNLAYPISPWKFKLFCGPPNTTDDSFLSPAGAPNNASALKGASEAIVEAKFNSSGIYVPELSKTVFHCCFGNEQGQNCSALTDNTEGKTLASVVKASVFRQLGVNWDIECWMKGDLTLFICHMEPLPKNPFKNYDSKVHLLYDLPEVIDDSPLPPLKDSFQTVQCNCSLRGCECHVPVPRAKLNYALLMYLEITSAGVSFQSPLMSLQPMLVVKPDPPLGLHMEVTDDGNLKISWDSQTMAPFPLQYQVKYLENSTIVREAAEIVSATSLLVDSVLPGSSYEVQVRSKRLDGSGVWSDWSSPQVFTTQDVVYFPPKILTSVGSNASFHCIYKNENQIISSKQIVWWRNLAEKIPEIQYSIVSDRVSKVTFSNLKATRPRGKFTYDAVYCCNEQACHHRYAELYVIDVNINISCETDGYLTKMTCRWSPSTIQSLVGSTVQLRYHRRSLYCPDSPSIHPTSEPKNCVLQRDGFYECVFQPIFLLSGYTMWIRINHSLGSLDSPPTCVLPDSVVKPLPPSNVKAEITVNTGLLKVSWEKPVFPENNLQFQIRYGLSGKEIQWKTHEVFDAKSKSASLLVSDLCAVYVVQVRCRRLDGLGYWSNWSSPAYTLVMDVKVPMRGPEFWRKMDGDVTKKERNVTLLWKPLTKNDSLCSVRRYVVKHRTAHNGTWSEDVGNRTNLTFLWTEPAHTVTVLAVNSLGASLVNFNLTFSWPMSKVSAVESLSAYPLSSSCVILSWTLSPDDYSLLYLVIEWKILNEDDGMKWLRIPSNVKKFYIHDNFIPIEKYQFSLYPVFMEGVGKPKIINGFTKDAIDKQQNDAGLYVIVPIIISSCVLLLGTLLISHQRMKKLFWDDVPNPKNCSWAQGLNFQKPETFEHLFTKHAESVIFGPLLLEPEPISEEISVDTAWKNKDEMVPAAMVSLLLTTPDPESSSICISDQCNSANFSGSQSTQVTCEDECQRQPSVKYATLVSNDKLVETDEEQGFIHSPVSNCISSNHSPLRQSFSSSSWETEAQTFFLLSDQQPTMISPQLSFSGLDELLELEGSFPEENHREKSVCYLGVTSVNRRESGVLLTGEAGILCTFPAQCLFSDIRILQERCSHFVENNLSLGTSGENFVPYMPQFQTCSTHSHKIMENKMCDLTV

No constants are given. Whether binding was seen depends on the method and setting. In cells and extracts the contact can be indirect. Some results given as binding are weak or reduced against the parent protein; the word gives no strength.

As for “Leptin Receptor (LEPR) (from UniProt P48356 22-1162)”, the binding entry was “binds”.

Values taken from PMC7784271.
